The list shows a part of the results. Repeats in this data set agree poorly, so a single value says little.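 U2OS cells carrying ACE2 were mixed with U2OS cells carrying full-length spike, and fusion was scored by imaging as the share of nuclei showing both cell types' fluorescent markers. A compound counts as an inhibitory hit when it is non-toxic and its fusion z-score falls below -3, meaning more than three standard deviations below the plate's DMSO wells.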
system: U2OS ACE2 x SARS-CoV-2 spike co-culture; assay: cell-cell fusion (fraction fused) z-score vs plate DMSO control; higher = more fusion; conditions: 30 µM; 5 h; toxicity class: non-toxic, passed QC

Structure (SMILES)	cell-cell fusion (z-score)
COc1ccccc1OCC(O)CN1CCN(CC(=O)Nc2c(C)cccc2C)CC1 (configuration not stated) [Ranolazine]	inactive: 2.05
CC1COc2c(N3CCN(C)CC3)c(F)cc3c(=O)c(C(=O)O)cn1c23.NCCO (configuration not stated)	inactive: 2.65
CC(C)(C)C(=O)C(Oc1ccc(Cl)cc1)n1ccnc1 (configuration not stated)	inactive: 2.03
CCC[C@@H]1C[C@@H](C(=O)N[C@@H]([C@H]2O[C@H](SC)[C@H](O)[C@@H](O)[C@H]2O)[C@@H](C)O)N(C)C1.Cl.O [Lincomycin hydrochloride monohydrate]	inactive: 0.557
Cc1ncc(CSSCc2cnc(C)c(O)c2CO)c(CO)c1O	inactive: 0.763
CCN1C[C@@]2(COC)C3[C@@H](OC)C4[C@@H]1C3([C@@H]1C[C@@]3(O)[C@H](OC(=O)c5ccccc5)[C@@H]1[C@]4(OC(C)=O)[C@@H](O)[C@@H]3OC)[C@H](OC)C[C@H]2O [Aconitine]	inactive: 1.37
CCCCC[C@H]1C(=O)O[C@H](C)[C@H](NC(=O)c2cccc(NC=O)c2O)C(=O)O[C@@H](C)[C@@H]1OC(=O)CC(C)C [ANTIMYCIN A (A1 shown)]	inactive: 1.63
CN1CC(=O)N2[C@H](c3ccc4c(c3)OCO4)c3[nH]c4ccccc4c3C[C@@H]2C1=O [Tadalafil]	inactive: 2.11
O=C([O-])CC(O)(CC(=O)[O-])C(=O)[O-].[Li+].[Li+].[Li+]	inactive: 0.982
CCCc1nc(C(C)(C)O)c(C(=O)OCc2oc(=O)oc2C)n1Cc1ccc(-c2ccccc2-c2nn[nH]n2)cc1 [Olmesartan Medoxomil]	inactive: 4.16
C[C@@H]1CN(c2c(F)c(F)c3c(=O)c(C(=O)O)cn(C4CC4)c3c2F)C[C@H](C)N1	inactive: 3.25
O=C1NC(=O)C(c2ccccc2)(c2ccccc2)N1 [Phenytoin]	inactive: 2.65
Cc1cc(Cn2cnc3c2C[C@@H](C(=O)O)N(C(=O)C(c2ccccc2)c2ccccc2)C3)ccc1N.O=C(O)C(F)(F)F	inactive: 1.58
CCN(Cc1ccncc1)C(=O)C(CO)c1ccccc1 (configuration not stated) [Tropicamide]	inactive: 0.61
CCCN(CC1CC1)c1nc(C)nc(Nc2c(Cl)cc(Cl)cc2Cl)c1Cl	inactive: 6.19
CC1=C2CC3[C@@H](CC=C4C[C@@H](O)CC[C@@]43C)[C@@H]2CC[C@]12O[C@@H]1C[C@H](C)CN[C@H]1[C@H]2C (some centres not stated)	inactive: 3.97
N#Cc1nn(-c2c(Cl)cc(C(F)(F)F)cc2Cl)c(N)c1S(=O)C(F)(F)F (configuration not stated)	inactive: 1.8

A few values from the list.
For cell-cell fusion (z-score), `CC1=C2CC3[C@@H](CC=C4C[C@@H](O)CC[C@@]43C)[C@@H]2CC[C@]12O[C@@H]1C[C@H](C)CN[C@H]1[C@H]2C` (some centres not stated) is listed with inactive: 3.97
For cell-cell fusion (z-score), `CCCc1nc(C(C)(C)O)c(C(=O)OCc2oc(=O)oc2C)n1Cc1ccc(-c2ccccc2-c2nn[nH]n2)cc1` [Olmesartan Medoxomil] is listed with inactive: 4.16
